# In article PMC4741438, “Targeting the SIN3A-PF1 interaction inhibits epithelial to mesenchymal transition and maintenance of a stem cell phenotype in triple negative breast cancer” (Oncotarget, 2015):
# Results are given in words; binding and its absence hold for the method and conditions named. In cells and extracts the contact can be indirect. Some binding calls cover weakened binding; strength is not graded here.
# Biological target: T1, SIN3A (human (endogenous in MDA-MB-231)) (UniProt Q96ST3)
# T1 sequence: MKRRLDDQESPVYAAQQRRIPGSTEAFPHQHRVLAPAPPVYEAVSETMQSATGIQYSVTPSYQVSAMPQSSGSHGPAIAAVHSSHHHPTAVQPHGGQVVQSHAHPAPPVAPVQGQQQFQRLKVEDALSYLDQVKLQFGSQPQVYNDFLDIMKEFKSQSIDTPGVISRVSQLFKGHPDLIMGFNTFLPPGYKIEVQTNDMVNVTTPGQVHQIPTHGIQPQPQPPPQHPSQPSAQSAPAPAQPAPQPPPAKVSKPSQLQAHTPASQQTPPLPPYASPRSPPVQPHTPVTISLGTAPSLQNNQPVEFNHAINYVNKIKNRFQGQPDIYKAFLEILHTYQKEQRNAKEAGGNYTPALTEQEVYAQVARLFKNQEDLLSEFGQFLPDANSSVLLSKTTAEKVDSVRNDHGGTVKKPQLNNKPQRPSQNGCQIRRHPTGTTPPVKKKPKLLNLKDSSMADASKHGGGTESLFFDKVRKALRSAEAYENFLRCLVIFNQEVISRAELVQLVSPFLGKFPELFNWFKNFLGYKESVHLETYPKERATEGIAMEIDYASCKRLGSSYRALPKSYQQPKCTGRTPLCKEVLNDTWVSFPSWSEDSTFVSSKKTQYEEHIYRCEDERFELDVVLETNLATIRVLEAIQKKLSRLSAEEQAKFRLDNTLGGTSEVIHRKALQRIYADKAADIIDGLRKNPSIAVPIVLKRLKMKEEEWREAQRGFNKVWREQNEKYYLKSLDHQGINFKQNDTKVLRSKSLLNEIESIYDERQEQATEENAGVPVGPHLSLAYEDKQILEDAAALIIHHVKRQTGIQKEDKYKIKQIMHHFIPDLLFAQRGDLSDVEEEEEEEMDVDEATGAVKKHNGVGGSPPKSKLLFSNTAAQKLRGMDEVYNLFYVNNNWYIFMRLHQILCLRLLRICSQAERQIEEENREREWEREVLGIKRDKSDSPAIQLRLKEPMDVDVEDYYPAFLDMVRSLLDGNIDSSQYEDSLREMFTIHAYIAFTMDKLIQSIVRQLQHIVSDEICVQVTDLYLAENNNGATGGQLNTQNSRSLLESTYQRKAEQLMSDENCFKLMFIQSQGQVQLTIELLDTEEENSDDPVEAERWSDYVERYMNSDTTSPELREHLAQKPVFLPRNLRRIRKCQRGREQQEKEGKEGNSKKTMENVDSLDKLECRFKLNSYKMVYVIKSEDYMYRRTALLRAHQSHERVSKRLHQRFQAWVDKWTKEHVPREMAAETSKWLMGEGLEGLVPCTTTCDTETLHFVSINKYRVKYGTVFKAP
# Test: co-IP; nuclear extracts of MDA-MB-231 cells, with or without 1 μM Tat-SID for 24 h; immunoprecipitation with anti-SIN3A, anti-PF1 or anti-KDM5B antibodies (Thermo Scientific IP kit), immunoblot for SIN3A, KDM5B, PF1 or MRG15
binder,measurement,value
YGRKKRRQGGGVRMNIQMLLEAADYLERRER [Tat-SID (MAD-SID peptide)],binding,binds
